Experimental data from article PMC11497058, “Ginsenoside Rg3 Restores Mitochondrial Cardiolipin Homeostasis via GRB2 to Prevent Parkinson's Disease” (Advanced Science, 2024).
These are yes or no findings as the source states them, for the method shown. For some assays here: In cells and extracts the contact can be indirect. Some binding calls cover weakened binding; strength is not graded here.

The chains behind the UniProt entries cited, without tags or fusion partners. Residues count along the entry.
UniProt P62993: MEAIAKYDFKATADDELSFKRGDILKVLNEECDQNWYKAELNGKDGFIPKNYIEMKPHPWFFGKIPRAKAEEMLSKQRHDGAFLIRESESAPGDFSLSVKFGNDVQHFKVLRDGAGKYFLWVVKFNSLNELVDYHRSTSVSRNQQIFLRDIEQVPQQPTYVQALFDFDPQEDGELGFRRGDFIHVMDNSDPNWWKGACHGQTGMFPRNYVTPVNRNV
UniProt P04629, residues 33-796: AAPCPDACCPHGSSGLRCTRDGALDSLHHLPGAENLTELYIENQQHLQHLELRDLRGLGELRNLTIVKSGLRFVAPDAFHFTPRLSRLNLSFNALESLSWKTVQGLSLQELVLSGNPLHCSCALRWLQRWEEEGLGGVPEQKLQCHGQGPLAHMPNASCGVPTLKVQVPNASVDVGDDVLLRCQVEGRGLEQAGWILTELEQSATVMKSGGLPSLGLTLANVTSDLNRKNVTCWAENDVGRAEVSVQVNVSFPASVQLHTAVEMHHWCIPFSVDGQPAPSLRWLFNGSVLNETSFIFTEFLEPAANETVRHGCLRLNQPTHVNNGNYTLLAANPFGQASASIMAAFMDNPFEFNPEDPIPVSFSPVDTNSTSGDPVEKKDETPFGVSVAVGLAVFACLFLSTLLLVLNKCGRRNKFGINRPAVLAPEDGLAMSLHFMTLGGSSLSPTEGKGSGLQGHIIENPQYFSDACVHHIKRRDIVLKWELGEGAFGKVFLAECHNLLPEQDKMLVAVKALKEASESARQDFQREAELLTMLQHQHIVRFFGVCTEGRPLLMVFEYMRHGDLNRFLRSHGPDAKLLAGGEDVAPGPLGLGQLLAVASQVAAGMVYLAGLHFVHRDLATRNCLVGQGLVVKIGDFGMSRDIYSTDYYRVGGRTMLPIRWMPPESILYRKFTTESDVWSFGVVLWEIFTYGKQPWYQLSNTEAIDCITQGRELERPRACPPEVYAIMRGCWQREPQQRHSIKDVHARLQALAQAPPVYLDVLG

Tests used:
[1] = molecular target: Growth Factor Receptor‐Bound Protein 2 (GRB2) (human (endogenous in SH-SY5Y)) (UniProt P62993); assay: native gel or EMSA; Native PAGE (4%-12% gel, 4 °C) and immunoblotting of SH-SY5Y lysates; cells treated with Rg3 (5 µM), GW441756 (10 µM) or DMSO (0.1%) for 6 h
[2] = molecular target: Growth Factor Receptor‐Bound Protein 2 (GRB2) (human (endogenous in SH-SY5Y)) (UniProt P62993); assay: co-IP; SH-SY5Y lysate (RIPA buffer) immunoprecipitated with anti-GRB2 antibody and protein A-agarose, blotted for TRKA and EGFR; cells treated with Rg3 (5 µM), TDF (10 µM) or DMSO (0.1%) for 24 h

binding [1]: binds
binding [2]: binds
Substance: TRKA (Neurotrophic Tyrosine Kinase, Receptor, Type 1) (from UniProt P04629 33-796)
